Source: publication doi:10.1101/2022.07.26.501557

Chains of the proteins cited; added tags and fusions are not shown. Lines headed by an entry give the natural chain unless they say otherwise; changes in a name come on top.
UniProt Q60751: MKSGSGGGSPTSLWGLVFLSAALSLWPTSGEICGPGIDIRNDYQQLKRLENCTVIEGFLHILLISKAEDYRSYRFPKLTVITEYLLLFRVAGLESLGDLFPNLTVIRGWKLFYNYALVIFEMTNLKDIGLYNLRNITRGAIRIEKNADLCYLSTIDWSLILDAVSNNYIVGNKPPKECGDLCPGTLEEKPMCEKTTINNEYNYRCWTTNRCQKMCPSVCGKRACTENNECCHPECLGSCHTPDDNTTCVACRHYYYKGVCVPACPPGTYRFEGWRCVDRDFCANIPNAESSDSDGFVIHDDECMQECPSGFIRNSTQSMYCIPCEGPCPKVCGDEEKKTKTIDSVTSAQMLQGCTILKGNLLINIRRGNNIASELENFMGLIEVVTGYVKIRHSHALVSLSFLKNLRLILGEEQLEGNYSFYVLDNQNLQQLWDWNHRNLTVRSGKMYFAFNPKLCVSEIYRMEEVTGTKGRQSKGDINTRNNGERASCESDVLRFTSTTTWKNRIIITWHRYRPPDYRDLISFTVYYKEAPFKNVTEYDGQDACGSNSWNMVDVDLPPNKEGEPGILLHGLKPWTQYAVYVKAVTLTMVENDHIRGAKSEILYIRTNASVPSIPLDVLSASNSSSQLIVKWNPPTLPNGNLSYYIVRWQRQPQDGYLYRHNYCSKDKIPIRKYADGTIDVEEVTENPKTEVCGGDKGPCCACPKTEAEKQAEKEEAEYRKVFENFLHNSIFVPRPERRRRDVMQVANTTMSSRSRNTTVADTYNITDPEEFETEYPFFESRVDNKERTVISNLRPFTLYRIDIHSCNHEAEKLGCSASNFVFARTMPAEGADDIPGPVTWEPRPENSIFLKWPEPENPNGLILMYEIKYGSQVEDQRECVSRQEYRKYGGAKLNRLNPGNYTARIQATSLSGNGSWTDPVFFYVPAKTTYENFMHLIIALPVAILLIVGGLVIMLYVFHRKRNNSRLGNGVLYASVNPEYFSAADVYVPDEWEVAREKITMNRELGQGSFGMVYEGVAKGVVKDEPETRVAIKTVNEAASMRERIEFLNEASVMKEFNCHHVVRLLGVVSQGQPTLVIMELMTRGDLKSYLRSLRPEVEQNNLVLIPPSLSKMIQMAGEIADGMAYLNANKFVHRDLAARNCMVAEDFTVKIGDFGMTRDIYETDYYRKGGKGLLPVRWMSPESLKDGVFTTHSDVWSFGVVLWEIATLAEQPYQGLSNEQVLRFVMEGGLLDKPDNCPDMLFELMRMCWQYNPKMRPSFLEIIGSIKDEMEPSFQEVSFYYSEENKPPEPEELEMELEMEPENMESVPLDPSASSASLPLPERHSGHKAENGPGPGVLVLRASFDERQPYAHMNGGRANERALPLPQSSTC

Target: T1, Glypican 1 (mouse (endogenous in mouse colon tumoroids)) (UniProt Q9QZF2)
T1 sequence: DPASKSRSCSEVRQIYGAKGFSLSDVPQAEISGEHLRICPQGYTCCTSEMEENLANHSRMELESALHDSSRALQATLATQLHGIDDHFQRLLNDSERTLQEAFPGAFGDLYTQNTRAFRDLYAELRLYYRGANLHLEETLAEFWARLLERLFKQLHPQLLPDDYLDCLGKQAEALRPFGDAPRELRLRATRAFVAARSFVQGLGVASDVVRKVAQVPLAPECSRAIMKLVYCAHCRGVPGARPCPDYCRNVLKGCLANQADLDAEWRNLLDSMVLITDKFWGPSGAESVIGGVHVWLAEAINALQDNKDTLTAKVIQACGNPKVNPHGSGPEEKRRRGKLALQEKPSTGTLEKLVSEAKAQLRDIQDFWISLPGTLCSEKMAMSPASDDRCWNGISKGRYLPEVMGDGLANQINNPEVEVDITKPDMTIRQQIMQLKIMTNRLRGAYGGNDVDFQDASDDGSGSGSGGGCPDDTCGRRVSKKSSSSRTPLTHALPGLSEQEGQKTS
Assay: co-IP

- binding: binds
Substance: IGF1Rβ (from UniProt Q60751) (receptor)

Results are given in words; binding and its absence hold for the method and conditions named. In cells and extracts the contact can be indirect. Binding calls can cover weak binding; strength is not graded here.
